# Assay results: patent US10722505B2, “Substituted 2,4 diamino-quinoline as new anticancer agents” (GENOSCIENCE PHARMA, priority 2014, dated 2020)
# “Also recorded” adds a separate entry of the source. Where a name gives a salt, the structure may show the parent alone. At least one structure is not confirmed: it was looked up by name or label, or the drawing left a doubt.
# Key:
# [1] = test system: Aldefluor positive cell subpopulation of CRC patient derived cells (CPP19, CPP30 and CPP45); assay: Aldefluor assay on liver metastatic CRC patient-derived cells; assay type: cell-based, human; details: 1 to 3 μM, 72 hours (FIG. 1), hydrochloride salt
# [2] = test system: CRC patient derived cells isolated from hepatic metastases (CPP19, CPP30 and CPP36); assay: Tumorosphere (sphere) formation assay of liver metastatic CRC patient-derived cells; assay type: cell-based, human
smiles,measurement,setting,value
"CC(C)(C)NC1CCN(c2cc(NCc3ccc(Cl)cc3)nc3ccccc23)CC1 [Compound 2-3, 2-(4-chlorobenzylamino)-4-(4-tert-butylaminopiperidin-1-yl)-quinoline hydrochloride salt]",Effect on Aldefluor positive (ALDH+) cell subpopulation,[1],significant (p<0.001) and dose-response cytotoxic activities; also recorded: decrease of ALDH+ population cells
same,Size of tumorospheres,"[2]; 0.3 μM or 3 μM, ten days","not statistically decreased by the treatment, except at 3 μM on CPP19 cells (p=0.02)"
same,Tumorosphere forming efficiency,"[2]; 3 μM, ten days",significantly suppressed
same,Tumorosphere formation,"[2]; CPP19, CPP30, CPP36, 0.3 μM or 3 μM, ten days (FIG. 2), hydrochloride salt",drastic and dose-dependent decrease in tumorosphere formation; also recorded: inhibition
